Results published in article PMC10701957.
These are yes or no findings as the source states them, for the method shown. In cells and extracts the contact can be indirect. Here binding means that the protein was enriched with, or labelled near, the bait; the list need not be complete.

The chains behind the UniProt entries cited, without tags or fusion partners.
UniProt P12814: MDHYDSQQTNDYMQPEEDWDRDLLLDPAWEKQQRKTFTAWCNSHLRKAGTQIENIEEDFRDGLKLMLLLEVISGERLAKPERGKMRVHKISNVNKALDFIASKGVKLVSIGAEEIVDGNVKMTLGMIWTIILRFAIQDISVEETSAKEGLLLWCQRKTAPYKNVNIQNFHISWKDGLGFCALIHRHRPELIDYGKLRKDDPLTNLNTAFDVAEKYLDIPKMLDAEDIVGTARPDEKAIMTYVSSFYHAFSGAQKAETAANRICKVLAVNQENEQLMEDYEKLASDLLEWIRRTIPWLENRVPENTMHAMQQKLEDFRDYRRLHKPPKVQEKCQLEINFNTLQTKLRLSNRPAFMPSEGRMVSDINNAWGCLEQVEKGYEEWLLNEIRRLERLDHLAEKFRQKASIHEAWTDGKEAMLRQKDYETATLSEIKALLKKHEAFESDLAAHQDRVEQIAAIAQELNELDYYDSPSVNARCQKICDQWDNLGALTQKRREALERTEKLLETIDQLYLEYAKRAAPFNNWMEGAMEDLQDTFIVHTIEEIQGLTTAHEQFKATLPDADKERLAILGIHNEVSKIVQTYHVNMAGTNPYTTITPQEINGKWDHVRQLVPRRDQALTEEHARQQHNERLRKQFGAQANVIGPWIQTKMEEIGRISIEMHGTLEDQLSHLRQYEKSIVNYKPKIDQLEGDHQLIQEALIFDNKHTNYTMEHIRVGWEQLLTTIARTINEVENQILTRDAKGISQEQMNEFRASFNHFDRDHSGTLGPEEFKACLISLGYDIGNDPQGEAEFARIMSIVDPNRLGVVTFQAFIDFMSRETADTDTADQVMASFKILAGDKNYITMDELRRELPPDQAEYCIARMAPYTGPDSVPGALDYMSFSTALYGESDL
UniProt P35579: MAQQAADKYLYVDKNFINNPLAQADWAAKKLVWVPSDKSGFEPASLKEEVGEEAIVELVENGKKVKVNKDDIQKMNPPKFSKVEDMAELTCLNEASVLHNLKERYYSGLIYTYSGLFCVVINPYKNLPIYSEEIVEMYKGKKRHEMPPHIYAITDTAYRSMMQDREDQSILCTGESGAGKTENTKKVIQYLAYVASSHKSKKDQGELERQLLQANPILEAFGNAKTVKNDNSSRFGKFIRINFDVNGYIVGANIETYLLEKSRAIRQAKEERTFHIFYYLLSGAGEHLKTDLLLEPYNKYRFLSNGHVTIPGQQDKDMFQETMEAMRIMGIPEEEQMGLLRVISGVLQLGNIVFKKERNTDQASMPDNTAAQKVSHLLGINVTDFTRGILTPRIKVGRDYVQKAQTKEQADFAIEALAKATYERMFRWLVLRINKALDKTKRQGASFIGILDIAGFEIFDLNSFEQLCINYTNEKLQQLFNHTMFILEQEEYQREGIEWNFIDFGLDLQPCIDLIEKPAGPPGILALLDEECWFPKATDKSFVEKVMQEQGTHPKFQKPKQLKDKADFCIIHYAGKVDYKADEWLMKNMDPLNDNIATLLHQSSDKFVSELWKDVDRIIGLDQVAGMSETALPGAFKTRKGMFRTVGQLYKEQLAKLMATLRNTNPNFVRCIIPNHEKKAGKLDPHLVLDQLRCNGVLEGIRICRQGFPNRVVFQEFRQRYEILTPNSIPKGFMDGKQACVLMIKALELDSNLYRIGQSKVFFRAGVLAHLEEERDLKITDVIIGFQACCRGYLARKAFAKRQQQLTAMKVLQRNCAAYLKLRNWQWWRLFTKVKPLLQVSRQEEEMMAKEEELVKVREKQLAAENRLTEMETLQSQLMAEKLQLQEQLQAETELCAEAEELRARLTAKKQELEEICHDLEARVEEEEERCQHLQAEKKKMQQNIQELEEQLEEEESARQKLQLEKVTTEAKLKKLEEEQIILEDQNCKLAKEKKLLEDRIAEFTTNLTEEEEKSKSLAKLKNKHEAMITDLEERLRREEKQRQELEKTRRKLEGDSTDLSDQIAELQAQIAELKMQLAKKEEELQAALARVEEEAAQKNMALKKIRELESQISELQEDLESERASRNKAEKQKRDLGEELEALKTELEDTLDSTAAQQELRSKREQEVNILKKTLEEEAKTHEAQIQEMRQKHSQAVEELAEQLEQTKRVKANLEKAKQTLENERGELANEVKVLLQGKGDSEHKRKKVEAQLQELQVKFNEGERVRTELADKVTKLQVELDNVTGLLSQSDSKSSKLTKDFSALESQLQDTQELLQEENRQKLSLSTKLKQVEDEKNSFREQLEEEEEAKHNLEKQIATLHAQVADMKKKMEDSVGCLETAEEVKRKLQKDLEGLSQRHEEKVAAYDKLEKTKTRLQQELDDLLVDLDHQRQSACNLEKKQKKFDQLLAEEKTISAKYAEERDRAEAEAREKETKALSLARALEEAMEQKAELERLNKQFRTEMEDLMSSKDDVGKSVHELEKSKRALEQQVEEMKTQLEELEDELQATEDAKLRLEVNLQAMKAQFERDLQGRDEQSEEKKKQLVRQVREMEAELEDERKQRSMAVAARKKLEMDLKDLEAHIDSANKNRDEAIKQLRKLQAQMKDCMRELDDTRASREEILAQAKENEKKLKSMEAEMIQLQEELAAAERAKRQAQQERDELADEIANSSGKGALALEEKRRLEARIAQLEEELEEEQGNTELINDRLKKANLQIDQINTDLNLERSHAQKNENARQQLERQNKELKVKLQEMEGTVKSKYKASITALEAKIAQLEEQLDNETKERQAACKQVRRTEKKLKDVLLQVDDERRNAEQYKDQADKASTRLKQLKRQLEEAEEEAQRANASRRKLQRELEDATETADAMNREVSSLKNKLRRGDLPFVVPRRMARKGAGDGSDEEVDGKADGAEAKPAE

Molecular target: alpha-actinin 1 (ACTN1) (human (endogenous in SCC-1cisR)) (UniProt P12814)
Experiment: affinity purification with mass spectrometry; IP of ACTN1; co-precipitated proteins separated by SDS-PAGE, candidate bands digested with trypsin, LC-MS/MS

In the case of “myosin heavy chain 9 (MYH9) (from UniProt P35579 1-1960)”, the binding is reported as “binds”.
